Experimental data: US8518938B2, “c-MET protein kinase inhibitors” (Vertex Pharmaceuticals Incorporated, priority 2008, dated 2013)
Some results were stated once for a whole list of compounds, not compound by compound.

Chains of the proteins cited; added tags and fusions are not shown. Residues count along the entry.
UniProt P08581, 25-1390: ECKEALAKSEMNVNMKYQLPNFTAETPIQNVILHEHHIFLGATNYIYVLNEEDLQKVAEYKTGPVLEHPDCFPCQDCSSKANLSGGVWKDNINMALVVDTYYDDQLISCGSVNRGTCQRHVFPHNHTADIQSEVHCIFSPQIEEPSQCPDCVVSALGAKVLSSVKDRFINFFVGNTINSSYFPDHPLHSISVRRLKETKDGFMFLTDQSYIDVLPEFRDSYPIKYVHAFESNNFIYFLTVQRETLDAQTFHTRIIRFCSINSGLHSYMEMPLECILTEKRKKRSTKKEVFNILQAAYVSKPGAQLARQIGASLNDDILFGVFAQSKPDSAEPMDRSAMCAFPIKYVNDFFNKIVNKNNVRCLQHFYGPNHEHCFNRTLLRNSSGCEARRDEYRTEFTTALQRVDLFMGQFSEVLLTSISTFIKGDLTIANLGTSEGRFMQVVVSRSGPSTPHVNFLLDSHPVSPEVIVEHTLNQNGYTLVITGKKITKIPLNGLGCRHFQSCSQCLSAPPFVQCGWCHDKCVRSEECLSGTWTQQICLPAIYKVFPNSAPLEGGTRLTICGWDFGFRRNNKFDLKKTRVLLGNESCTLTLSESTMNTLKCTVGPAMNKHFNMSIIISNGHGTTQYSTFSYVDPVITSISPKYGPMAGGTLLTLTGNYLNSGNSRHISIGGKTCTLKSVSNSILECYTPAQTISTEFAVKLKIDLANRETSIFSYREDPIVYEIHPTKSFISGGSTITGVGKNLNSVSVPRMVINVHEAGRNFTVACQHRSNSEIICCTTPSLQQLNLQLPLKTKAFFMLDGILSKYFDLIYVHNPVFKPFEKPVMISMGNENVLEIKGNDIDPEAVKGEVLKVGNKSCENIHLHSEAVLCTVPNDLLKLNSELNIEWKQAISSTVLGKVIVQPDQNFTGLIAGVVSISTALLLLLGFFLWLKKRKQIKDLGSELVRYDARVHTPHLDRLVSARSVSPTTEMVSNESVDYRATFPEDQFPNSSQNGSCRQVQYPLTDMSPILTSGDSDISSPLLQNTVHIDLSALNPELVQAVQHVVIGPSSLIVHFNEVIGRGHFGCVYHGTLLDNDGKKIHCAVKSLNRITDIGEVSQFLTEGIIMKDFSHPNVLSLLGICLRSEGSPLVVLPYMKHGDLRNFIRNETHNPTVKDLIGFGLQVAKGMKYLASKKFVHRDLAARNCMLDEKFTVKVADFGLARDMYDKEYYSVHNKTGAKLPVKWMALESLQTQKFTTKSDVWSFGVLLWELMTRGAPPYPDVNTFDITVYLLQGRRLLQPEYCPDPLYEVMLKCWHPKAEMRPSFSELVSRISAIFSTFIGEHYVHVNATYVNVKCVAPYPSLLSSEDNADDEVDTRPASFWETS

Target: T1, c-Met (Homo sapiens, UniProt P08581)
T1 construct: is a human gastric carcinoma known to overexpress c-Met, which is constitutively active; host or cells: Snu5 human gastric carcinoma cells transduced with a 6xAP1-luciferase-PEST reporter (Snu5-AP1-Luc-Pest)
Experiment: Inhibition of c-Met activity in Snu5 gastric carcinoma cells (Snu5-AP1-Luc-Pest luciferase signal)
Assay type: cell-based
Conditions: luciferase signal (Steady-Glo), 6 hours incubation

| Structure (SMILES) | IC50 |
| --- | --- |
| CCn1cc(-c2cnc(N)c(-c3nnnn3-c3ccc(OCCN(C)C)c(F)c3F)c2)cn1 [Compound 7] | ≤ 500 nM |
| CCCn1cc(-c2cnc(N)c(-c3nnnn3-c3ccc(OC[C@@H]4CCCN4)c(F)c3F)c2)cn1 [Compound 106] | ≤ 500 nM |
| CN(C)CCCOc1ccc(-n2nnnc2-c2cc(-c3ccccc3)cnc2N)c(F)c1F [Compound 57] | ≤ 500 nM |
| Nc1ncc(-c2cnn(C3CCOCC3)c2)cc1-c1nnnn1-c1ccc(OCCCN2CCOCC2)c(F)c1F [Compound 170] | ≤ 500 nM |
| CCCn1cc(-c2cnc(N)c(-c3nnnn3-c3ccc(OCCCN4CCCC4)c(F)c3F)c2)cn1 [Compound 164] | ≤ 500 nM |
| CN(C)C1CCC(COc2ccc(-n3nnnc3-c3cc(-c4cnn(C5CCOCC5)c4)cnc3N)c(F)c2F)CC1 (stereo not shown) [Compound 173] | ≤ 500 nM |
| CCCn1cc(-c2cnc(N)c(-c3nnnn3-c3ccc(OCCN4CCOCC4)c(F)c3F)c2)cn1 [Compound 73] | ≤ 500 nM |
| Cn1cc(-c2cnc(N)c(-c3nnnn3-c3ccc(OCCCN4CCCCC4)c(F)c3F)c2)cn1 [Compound 157] | ≤ 500 nM |
| Nc1ncc(-c2cnn(C3CCOCC3)c2)cc1-c1nnnn1-c1ccc(OCCCN2CCCC2)c(F)c1F [Compound 171] | ≤ 500 nM |
| CN(C)CCOc1ccc(-n2nnnc2-c2cc(-c3ccsc3)cnc2N)c(F)c1F [Compound 91] | ≤ 500 nM |
| CC(C)CCn1cc(-c2cnc(N)c(-c3nnnn3-c3ccc(OCCCN4CCOCC4)c(F)c3F)c2)cn1 [Compound 151] | ≤ 500 nM |
| CN1C2CCC1CC(Oc1ccc(-n3nnnc3-c3cc(-c4ccsc4)cnc3N)c(F)c1F)C2 (stereo not shown) [Compound 120] | ≤ 500 nM |
| CNC1CCC(Oc2ccc(-n3nnnc3-c3cc(-c4cccs4)cnc3N)c(F)c2F)CC1 (stereo not shown) [Compound 129] | ≤ 500 nM |
| CCCn1cc(-c2cnc(N)c(-c3nnnn3-c3ccc(OCCN(C)C)c(F)c3F)c2)cn1 [Compound 9] | ≤ 500 nM |
| Cn1cc(-c2cnc(N)c(-c3nnnn3-c3ccc(OCCC4CCCN4)c(F)c3F)c2)cn1 (stereo not shown) [Compound 146] | ≤ 500 nM |
| CC(C)CCn1cc(-c2cnc(N)c(-c3nnnn3-c3ccc(OCCCCN(C)C)c(F)c3F)c2)cn1 [Compound 133] | ≤ 500 nM |
| CN(C)C1CCC(COc2ccc(-n3nnnc3-c3cc(-c4cnn(C)c4)cnc3N)c(F)c2F)CC1 (stereo not shown) [Compound 179] | ≤ 500 nM |
| CN(C)CCOc1ccc(-n2nnnc2-c2cc(-c3cnn(C4CCOCC4)c3)cnc2N)c(F)c1F [Compound 31] | ≤ 500 nM |
| Cn1cc(-c2cnc(N)c(-c3nnnn3-c3ccc(OCCCN4CCOCC4)c(F)c3F)c2)cn1 [Compound 162] | ≤ 500 nM |
| CN(C)CCCCOc1ccc(-n2nnnc2-c2cc(-c3cnn(C)c3)cnc2N)c(F)c1F [Compound 136] | ≤ 500 nM |
| CC(C)CCn1cc(-c2cnc(N)c(-c3nnnn3-c3ccc(OCCC4CCNC4)c(F)c3F)c2)cn1 (stereo not shown) [Compound 144] | ≤ 500 nM |
| CC(C)CCn1cc(-c2cnc(N)c(-c3nnnn3-c3ccc(OCCCN4CCCC4)c(F)c3F)c2)cn1 [Compound 152] | ≤ 500 nM |
| CN(C)CCOc1ccc(-n2nnnc2-c2cc(-c3cnn(C)c3)cnc2N)c(F)c1F [Compound 2, 3-(1-(4-(2-(dimethylamino)ethoxy)-2,3-difluorophenyl)-1H-tetrazol-5-yl)-5-(1-methyl-1H-pyrazol-4-yl)pyridin-2-amine] | ≤ 500 nM |
| CNC1CCC(COc2ccc(-n3nnnc3-c3cc(-c4cnn(C5CCOCC5)c4)cnc3N)c(F)c2F)CC1 (mixture of isomers) [Compound 142] | ≤ 500 nM |
| CCCn1cc(-c2cnc(N)c(-c3nnnn3-c3ccc(OCCCN4CCCCC4)c(F)c3F)c2)cn1 [Compound 167] | ≤ 500 nM |
| CC(C)CCn1cc(-c2cnc(N)c(-c3nnnn3-c3ccc(OCCCCN4CCOCC4)c(F)c3F)c2)cn1 [Compound 154] | ≤ 500 nM |

| Structure (SMILES) | IC50 |
| --- | --- |
| CNCCCOc1ccc(-n2nnnc2-c2cc(-c3ccsc3)cnc2N)c(F)c1F [Compound 39] | ≤ 500 nM |
| CNC1CCC(COc2ccc(-n3nnnc3-c3cc(-c4cnn(C)c4)cnc3N)c(F)c2F)CC1 (mixture of isomers) [Compound 139] | ≤ 500 nM |
| CNC1CCC(COc2ccc(-n3nnnc3-c3cc(-c4cccs4)cnc3N)c(F)c2F)CC1 (mixture of isomers) [Compound 141] | ≤ 500 nM |
| CCCn1cc(-c2cnc(N)c(-c3nnnn3-c3ccc(OCCCCN4CCOCC4)c(F)c3F)c2)cn1 [Compound 166] | ≤ 500 nM |
| CCCn1cc(-c2cnc(N)c(-c3nnnn3-c3ccc(OCCCN(C)C)c(F)c3F)c2)cn1 [Compound 49] | ≤ 500 nM |
| CC(C)CCn1cc(-c2cnc(N)c(-c3nnnn3-c3ccc(OCCCCN4CCCCC4)c(F)c3F)c2)cn1 [Compound 153] | ≤ 500 nM |
| Nc1ncc(-c2cnn(C3CCOCC3)c2)cc1-c1nnnn1-c1ccc(OCCC2CCNC2)c(F)c1F (stereo not shown) [Compound 145] | ≤ 500 nM |
| CN(C)CCCCOc1ccc(-n2nnnc2-c2cc(-c3cccs3)cnc2N)c(F)c1F [Compound 132] | ≤ 500 nM |
| CNC1CCC(Oc2ccc(-n3nnnc3-c3cc(-c4cnn(C5CCOCC5)c4)cnc3N)c(F)c2F)CC1 (stereo not shown) [Compound 128] | ≤ 500 nM |
| Cn1cc(-c2cnc(N)c(-c3nnnn3-c3ccc(OCC4CCNCC4)c(F)c3F)c2)cn1 [Compound 112] | ≤ 500 nM |
| CCCn1cc(-c2cnc(N)c(-c3nnnn3-c3ccc(OCCCCN4CCCC4)c(F)c3F)c2)cn1 [Compound 168] | ≤ 500 nM |
| Nc1ncc(-c2cnn(C3CCOCC3)c2)cc1-c1nnnn1-c1ccc(OCCCN2CCCCC2)c(F)c1F [Compound 169] | ≤ 500 nM |
| Nc1ncc(-c2cnn(C3CCOCC3)c2)cc1-c1nnnn1-c1ccc(OCC2CCNCC2)c(F)c1F [Compound 115] | ≤ 500 nM |
| CN1C2CCC1CC(Oc1ccc(-n3nnnc3-c3cc(-c4cnn(C)c4)cnc3N)c(F)c1F)C2 (stereo not shown) [Compound 124] | ≤ 500 nM |
| Nc1ncc(-c2cnn(C3CCOCC3)c2)cc1-c1nnnn1-c1ccc(OCCCCN2CCOCC2)c(F)c1F [Compound 175] | ≤ 500 nM |
| CC(C)CCn1cc(-c2cnc(N)c(-c3nnnn3-c3ccc(OC4CCC(N(C)C)CC4)c(F)c3F)c2)cn1 (stereo not shown) [Compound 156] | ≤ 500 nM |
| CCCn1cc(-c2cnc(N)c(-c3nnnn3-c3ccc(OCCCN4CCOCC4)c(F)c3F)c2)cn1 [Compound 163] | ≤ 500 nM |
| Cc1csc(-c2cnc(N)c(-c3nnnn3-c3ccc(OCCCN(C)C)c(F)c3F)c2)c1 [Compound 61] | ≤ 500 nM |
| Nc1ncc(-c2ccsc2)cc1-c1nnnn1-c1ccc(OC2CCCNC2)c(F)c1F (stereo not shown) [Compound 122] | ≤ 500 nM |
| CC(C)CCn1cc(-c2cnc(N)c(-c3nnnn3-c3ccc(OCCC4CCCN4)c(F)c3F)c2)cn1 (stereo not shown) [Compound 155] | ≤ 500 nM |
| CNCCCOc1ccc(-n2nnnc2-c2cc(-c3cnn(CC(C)C)c3)cnc2N)c(F)c1F [Compound 33] | ≤ 500 nM |
| CN(C)CCOc1cc(F)c(-n2nnnc2-c2cc(-c3cnn(C4CCOCC4)c3)cnc2N)c(F)c1 [Compound 103] | ≤ 500 nM |
| CCCn1cc(-c2cnc(N)c(-c3nnnn3-c3ccc(OC[C@H]4CCCN4)c(F)c3F)c2)cn1 [Compound 108] | ≤ 500 nM |
| Cn1cc(-c2cnc(N)c(-c3nnnn3-c3ccc(OCCCCN4CCCCC4)c(F)c3F)c2)cn1 [Compound 159] | ≤ 500 nM |
| CCCn1cc(-c2cnc(N)c(-c3nnnn3-c3ccc(OCCCCN4CCCCC4)c(F)c3F)c2)cn1 [Compound 165] | ≤ 500 nM |
| CCCn1cc(-c2cnc(N)c(-c3nnnn3-c3ccc(OC[C@H]4CCNC4)c(F)c3F)c2)cn1 [Compound 109] | ≤ 500 nM |
